{
  "source": "paper PMC4148118",
  "binders": {"B1": {"name": "in vitro-translated GCIP (protein, UniProt O95273 1-360)", "chain": "MASATAPAAAVPTLASPLEQLRHLAEELRLLLPRVRVGEAQETTEEFNREMFWRRLNEAAVTVSREATTLTIVFSQLPLPSPQETQKFCEQVHAAIKAFIAVYYLLPKDQGITLRKLVRGATLDIVDGMAQLMEVLSVTPTQSPENNDLISYNSVWVACQQMPQIPRDNKAAALLMLTKNVDFVKDAHEEMEQAVEECDPYSGLLNDTEENNSDNHNHEDDVLGFPSNQDLYWSEDDQELIIPCLALVRASKACLKKIRMLVAENGKKDQVAQLDDIVDISDEISPSVDDLALSIYPPMCHLTVRINSAKLVSVLKKALEITKASHVTPQPEDSWIPLLINAIDHCMNRIKELTQSELEL"}, "B2": {"name": "Flag-Id1 (protein, UniProt P41134 1-155)", "chain": "MKVASGSTATAAAGPSCALKAGKTASGAGEVVRCLSEQSVAISRCAGGAGARLPALLDEQQVNVLLYDMNGCYSRLKELVPTLPQNRKVSKVEILQHVIDYIRDLQLELNSESEVGTPGGRGLPVRAPLSTLNGEISALTAEAACVPADDRILCR"}, "B3": {"name": "endogenous Id1 (A549 cells) (protein, UniProt P41134 1-155)", "chain": "B2 chain"}, "B4": {"name": "GCIP (mammalian two-hybrid construct) (protein, UniProt O95273 1-360)", "chain": "B1 chain"}},
  "key": {"GST-Id3 fusion protein": {"target": "T1, GST-Id3 fusion protein (UniProt Q02535)", "T1 sequence": "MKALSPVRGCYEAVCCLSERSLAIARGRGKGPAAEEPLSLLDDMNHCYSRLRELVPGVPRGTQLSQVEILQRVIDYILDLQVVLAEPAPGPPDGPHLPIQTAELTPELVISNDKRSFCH", "experiment": "pull-down; GST pull-down; GST-Id (Id1-4) fusion proteins from BL-21 bacteria with in vitro-translated GCIP; SDS-PAGE, probed with an anti-GCIP antibody; GST as control; only the target purified"}, "GST-Id2 fusion protein": {"target": "T2, GST-Id2 fusion protein (UniProt Q02363)", "T2 sequence": "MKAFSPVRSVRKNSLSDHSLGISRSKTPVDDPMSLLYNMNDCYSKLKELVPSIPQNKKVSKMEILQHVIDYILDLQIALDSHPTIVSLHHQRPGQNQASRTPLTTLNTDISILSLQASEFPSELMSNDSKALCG", "experiment": "pull-down; GST pull-down; GST-Id (Id1-4) fusion proteins from BL-21 bacteria with in vitro-translated GCIP; SDS-PAGE, probed with an anti-GCIP antibody; GST as control; only the target purified"}, "GST-Id1 fusion protein": {"target": "T3, GST-Id1 fusion protein (UniProt P41134)", "T3 sequence": "B2 chain", "experiment": "pull-down; GST pull-down; GST-Id (Id1-4) fusion proteins from BL-21 bacteria with in vitro-translated GCIP; SDS-PAGE, probed with an anti-GCIP antibody; GST as control; only the target purified"}, "GST-Id4 fusion protein": {"target": "T4, GST-Id4 fusion protein (UniProt P47928)", "T4 sequence": "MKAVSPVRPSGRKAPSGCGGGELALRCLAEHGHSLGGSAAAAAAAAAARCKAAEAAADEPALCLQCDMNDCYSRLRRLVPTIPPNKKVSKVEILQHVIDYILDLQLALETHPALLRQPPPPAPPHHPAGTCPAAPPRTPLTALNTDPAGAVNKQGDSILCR", "experiment": "pull-down; GST pull-down; GST-Id (Id1-4) fusion proteins from BL-21 bacteria with in vitro-translated GCIP; SDS-PAGE, probed with an anti-GCIP antibody; GST as control; only the target purified"}, "c-Myc-GCIP (human)": {"target": "T5, c-Myc-GCIP (human) (UniProt O95273)", "T5 sequence": "B1 chain", "experiment": "co-IP; 293T cells cotransfected with c-Myc-GCIP and Flag-Id1; lysis in NP-40 buffer (150 mM NaCl, 1.0% NP-40, 50 mM Tris-Cl pH 8.0); immunoprecipitation with anti-c-Myc, immunoblot with anti-Flag; also from cytoplasmic and nuclear fractions (100 μg protein each)"}, "[1]": {"target": "T6, endogenous GCIP (A549 cells) (human (endogenous in A549)) (UniProt O95273)", "T6 sequence": "B1 chain", "experiment": "co-IP; endogenous proteins in A549 cells, without or with BMP2 for 24 h; immunoprecipitation with an anti-GCIP antibody, Id1 detected"}, "pBIND full-length Id3": {"target": "T7, pBIND full-length Id3 (UniProt Q02535)", "T7 sequence": "T1 sequence", "experiment": "two-hybrid; mammalian two-hybrid; full-length Id1, Id2, Id3, Id4 in pBIND against GCIP; truncated constructs for mapping"}, "pBIND full-length Id4": {"target": "T8, pBIND full-length Id4 (UniProt P47928)", "T8 sequence": "T4 sequence", "experiment": "two-hybrid; mammalian two-hybrid; full-length Id1, Id2, Id3, Id4 in pBIND against GCIP; truncated constructs for mapping"}, "pBIND full-length Id1": {"target": "T9, pBIND full-length Id1 (UniProt P41134)", "T9 sequence": "B2 chain", "experiment": "two-hybrid; mammalian two-hybrid; full-length Id1, Id2, Id3, Id4 in pBIND against GCIP; truncated constructs for mapping"}, "pBIND full-length Id2": {"target": "T10, pBIND full-length Id2 (UniProt Q02363)", "T10 sequence": "T2 sequence", "experiment": "two-hybrid; mammalian two-hybrid; full-length Id1, Id2, Id3, Id4 in pBIND against GCIP; truncated constructs for mapping"}},
  "note": "No constants are given. Whether binding was seen depends on the method and setting. For some of these results: Binding seen in cells or lysates may run through a third protein. Some results given as binding are weak or reduced against the parent protein; the word gives no strength. For some of these results: Sequences can lack the tags named with a protein.",
  "data": [
    {"binder": "B1", "values": [
      {"measurement": "binding", "setting": "GST-Id3 fusion protein", "value": "binds"},
      {"measurement": "binding", "setting": "GST-Id2 fusion protein", "value": "binds weakly"},
      {"measurement": "binding", "setting": "GST-Id1 fusion protein", "value": "binds"},
      {"measurement": "binding", "setting": "GST-Id4 fusion protein", "value": "binds weakly"}
    ]},
    {"binder": "B2", "values": [
      {"measurement": "binding", "setting": "c-Myc-GCIP (human)", "value": "binds"}
    ]},
    {"binder": "B3", "values": [
      {"measurement": "binding", "setting": "[1]", "value": "binds"}
    ]},
    {"binder": "B4", "values": [
      {"measurement": "binding", "setting": "pBIND full-length Id3", "value": "binds"},
      {"measurement": "binding", "setting": "pBIND full-length Id4", "value": "binds weakly"},
      {"measurement": "binding", "setting": "pBIND full-length Id1", "value": "binds"},
      {"measurement": "binding", "setting": "pBIND full-length Id2", "value": "binds weakly"}
    ]}
  ]
}
